Results as given in PubChem BioAssay AID2685 (National Center for Advancing Translational Sciences (NCATS), 2010).
Some of the results follow. Further columns of the screen follow, without active or inactive calls. The list favours compounds with an active or inconclusive main result. The note in brackets gives the kind of curve behind each potency; many fits are weak.

Experiment: qHTS Assay for Lipid Storage Modulators in Drosophila S3 Cells;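 on cell number change: cells counted by Cell Tracker Red CMTPX staining in the red channel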
Conditions: BODIPY lipid droplet fluorescence, 18-24 h; for cell number change: measured here: cell count max response, cells fed with added oleic acid
Summary of the method: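 Laser-scanning cytometry quantifies lipid droplet accumulation (500–530 nm total intensity; droplet/cell object ratio) in oleic acid-fed (400 uM added) Drosophila S3 cells treated with a concentration series. 20 uM Triacsin C defined 100% inhibition.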

[1] = measured here: lipid fluorescence (Fed channel) AC50, cells fed with added oleic acid
[2] = measured here: cell number channel AC50, cells fed with added oleic acid

| SMILES | cell number change | AC50 [1] | AC50 [2] |
| --- | --- | --- | --- |
| Cc1ccc(C(=O)NCC(=O)N2CCCCCCC2)cc1 | -4.64% | 1.46 µM [falling, full curve] | – |
| CCCCn1ccnc1C | 14.5% | 6.51 µM [falling, single point] | – |
| c1ccc(Nc2nc(N3CCCC3)nc(N3CCCC3)n2)cc1 | 12.9% | 5.8 µM [rising, single point] | – |
| Cc1cccc(NC(=O)CN(c2ccc(C(C)C)cc2)S(=O)(=O)c2c(C)nn(C)c2C)n1 | -18.3% | 1.84 µM [rising, partial curve] | 2.31 µM [falling, single point] |
| O=C(CS(=O)(=O)c1ccc(Cl)cc1)Nc1nnc(-c2cccs2)o1 | -11.9% | 2.31 µM [falling, full curve] | – |
| Cc1cc(C)c[n+](C2=C([O-])c3ccccc3C(=O)/C2=N\S(=O)(=O)c2cccs2)c1 | -15.3% | 3.66 µM [falling, single point] | – |
| O=C(COc1cccc2ccccc12)Nc1cc(S(=O)(=O)N2CCOCC2)ccc1N1CCOCC1 | -63.9% | – | – |
| CSc1c(SCc2ccccc2)cnn(Cc2ccccc2)c1=O | -3.69% | 0.00517 µM [rising, full curve, poor fit] | – |
| COC(=O)CSC1=C(C#N)C(=O)NC(c2ccccc2)S1 (stereo not drawn) | -118% | – | 6.51 µM [falling, full curve] |
| CCCOc1ccc(-c2c(C(=O)N/N=C(\C)c3cccnc3)nnn2-c2nonc2N)cc1 | -0.59% | 29.1 µM [falling, partial curve] | 5.8 µM [falling, partial curve, poor fit] |
| c1ccc(Nc2nnc(SCc3cccc4ccccc34)s2)cc1 | 70.8% | 1.3 µM [rising, full curve] | 25.9 µM [rising, single point] |
| CCOC(=O)c1c(CN(C)C)n(-c2ccccc2)c2cc(Br)c(OC)cc12 | 1.3% | 2.91 µM [falling, full curve] | – |
| Cc1cc(=O)oc2c3c(cc(OCC(=O)N[C@H](C(=O)O)c4ccccc4)c12)OC(C)(C)CC3 | 28.2% | – | – |
| CC(NC(=O)c1ccc(-c2ccccc2)cc1)C(c1ccccc1)N1CCOCC1 (stereo not drawn) | -8.88% | 29.1 µM [falling, single point] | – |
| COc1cccc(OCC(=O)Nc2ccc(OC)c(OC)c2)c1 | -24.3% | 6.51 µM [rising, single point] | – |
| Cc1ccc(S(=O)(=O)/N=C/N(C)C)cc1 | -8.4% | – | – |
| COc1ccc(-c2cc(NCCc3ccncc3)n3ncnc3n2)cc1 | 22.3% | 0.461 µM [rising, full curve] | – |
| CN(C)c1ccc(C2/C(=C(/O)c3ccccc3)C(=O)C(=O)N2CCCC(=O)O)cc1 (stereo not drawn) | -20.8% | 29.1 µM [falling, single point] | – |
| Cc1ccc(Nc2nc3ccccc3c(=O)s2)cc1 | 24% | 0.82 µM [falling, single point] | – |
| COc1ccc(CN(C)C(=O)CCc2ccc(S(=O)(=O)N3CCCCCC3)cc2)c(OC)c1 | -0.615% | 13 µM [falling, partial curve, poor fit] | – |
| Cc1cc(C)c(C#N)c(SCc2ccccc2[N+](=O)[O-])n1 | 22.7% | 7.31 µM [rising, partial curve] | – |

| SMILES | cell number change | AC50 [1] | AC50 [2] |
| --- | --- | --- | --- |
| Cc1ccc(C=Nc2ccccc2C(N)=O)cc1 | 2.33% | – | – |
| CSCCC(NC(=O)c1ccc([N+](=O)[O-])cc1Cl)C(=O)OCC(=O)NCC(F)(F)F (stereo not drawn) | 6.87% | 29.1 µM [rising, single point] | – |
| Cc1nn(-c2ccccc2)c(Cl)c1/C=N/NC(=O)c1[nH]ncc1Br | -14.6% | 20.6 µM [falling, partial curve] | – |
| CCOC(=O)N1CCN(Cc2nc(N)nc(Nc3ccccc3C)n2)CC1 | 56% | 9.2 µM [rising, partial curve, poor fit] | 4.11 µM [rising, full curve] |
| Cc1nc2cc(C(F)(F)F)ccc2n1CCNc1nc(-c2ccc(F)cc2)cs1 | -13.8% | 6.51 µM [rising, single point] | – |
| O=C(CN1CC[n+]2c(-c3cccs3)csc21)c1ccc(-c2ccccc2)cc1 | -13.1% | 29.1 µM [falling, partial curve, poor fit] | – |
| O=C(N/N=C/c1ccco1)c1ccn[nH]1 | 5.53% | – | – |
| CC(=O)Oc1ccc2oc3c(c2c1)C(=O)CCC3 | -3.68% | 13 µM [falling, partial curve] | – |
| CC(=O)N1CCN(C(=O)CCNS(=O)(=O)c2ccccc2)CC1 | -31.4% | 29.1 µM [falling, single point] | 29.1 µM [falling, single point] |
| O=C(Nc1ccc(N2CCOCC2)c(Cl)c1)c1cccc(F)c1 | -15.6% | 0.00411 µM [rising, full curve, poor fit] | – |
| Fc1ccc(NCc2nnc3n2CCCCC3)cc1 | -5.7% | – | 0.00517 µM [rising, full curve, poor fit] |
| CC(=O)Nc1ccc(S(=O)(=O)Nc2nc3ccccc3nc2N2CCCC2)cc1 | – | 2.06 µM [rising, partial curve] | 1.46 µM [rising, partial curve] |
| Clc1ccc2oc(-c3ccccc3)nc2c1 | 25% | – | – |
| N#CC1=C(N)NC(=S)C(C(N)=O)C1c1ccccc1F (stereo not drawn) | -8.02% | 0.58 µM [falling, single point] | – |
| COc1cccc(-c2nnn(CC(=O)Nc3ccc(C)cc3C)n2)c1OC | 33.2% | 0.517 µM [rising, partial curve] | 0.00461 µM [rising, full curve, poor fit] |
| CC1=C/C(=C\C=C(C#N)C#N)N(C)c2ccccc21 | -94.9% | 1.84 µM [falling, partial curve, poor fit] | 29.1 µM [falling, single point] |
| COc1ccc(NC(=O)c2cc(S(=O)(=O)N3CCCCC3)ccc2N2CCCCC2)cn1 | -26% | 29.1 µM [falling, single point] | – |
| O=C(NCCC1=CCCCC1)C(=O)c1c[nH]c2ccccc12 | -53.2% | 9.2 µM [falling, partial curve] | 9.2 µM [falling, partial curve] |
| Cn1cc(CN2CCC(C(=O)Nc3cccc(-c4cccc(F)c4)c3)CC2)cn1 | 19.4% | 29.1 µM [rising, single point] | – |
| COc1ccccc1N(CCC#N)C(=O)COC(=O)CCC(=O)c1ccc(F)cc1 | 2.01% | 32.6 µM [falling, single point] | – |
| COc1cc(S(=O)(=O)NCc2ccc3c(c2)OCO3)c(OC)cc1C | -10.2% | – | – |

| SMILES | cell number change | AC50 [1] | AC50 [2] |
| --- | --- | --- | --- |
| Cc1ccccc1-c1noc(C2CCCCC2)n1 | 11.8% | 6.51 µM [rising, single point] | – |
| COc1cc2c(cc1OC)C1(Nc3c-2c(-c2ccccc2)nn3-c2ccccc2)C(=O)Nc2ccccc21 (stereo not drawn) | -15.4% | 0.651 µM [rising, single point] | – |
| Cc1ccccc1CN1CCC(n2nccc2NC(=O)c2ccc3c(c2)OCO3)CC1 | -5.41% | 29.1 µM [falling, single point] | – |
| Cc1ccc(NC(=S)NNC(=O)Cn2nc(C(F)F)cc2C(F)F)cc1 | -0.334% | 0.366 µM [falling, partial curve, poor fit] | – |
| OC1(CNCc2cn[nH]c2-c2cc3ccccc3o2)CCCCC1 | – | 3.66 µM [rising, full curve] | – |
| CCc1ccc(OCC2c3cc(OC)c(OC)cc3CCN2C(=S)NCCOC)cc1 (stereo not drawn) | 21.8% | – | – |
| CC1(C)CC(NC(=O)C(F)(F)F)CC(C)(C)N1OC(=O)c1ccco1 | -9.26% | – | – |
| COc1ccc(NC(=O)CNS(=O)(=O)c2cccc3nonc23)c(OC)c1 | 49.3% | 6.51 µM [rising, single point] | 4.11 µM [rising, full curve, poor fit] |
| N#Cc1ccc(Oc2ccc(S(=O)(=O)N3CCOCC3)cn2)cc1 | 100% | – | 11.6 µM [rising, partial curve] |
| Cc1ccc(-c2nc(C=Nc3ccccc3)c(O)o2)cc1 | 13.1% | 3.66 µM [rising, full curve, poor fit] | – |
| C=CCn1c(C)cc(C2=NNC(=NC(C)(C)C)SC2)c1C | 10.9% | 6.51 µM [rising, single point] | – |
| CS(=O)(=O)c1ccc(-c2nn[nH]n2)cc1 | -14.2% | 0.146 µM [falling, full curve] | – |
| COc1cc(OC)c(C2C(C#N)=C(N)OC3=C2C(=O)CC(C)(C)C3)cc1OC (stereo not drawn) | 0.832% | – | – |
| COC(=O)c1nc2ccc(C)cn2c1F | -0.408% | 1.46 µM [falling, partial curve] | 2.06 µM [falling, partial curve] |
| Cc1nn(Cc2noc(C(=O)NCC3CCCO3)n2)c(C)c1Br (stereo not drawn) | 3.24% | 29.1 µM [rising, single point] | – |
| Cc1ccc(NC(=O)CN2C(=O)NC(C)(c3ccccc3)C2=O)c(C)c1 (stereo not drawn) | 37.2% | 29.1 µM [falling, single point] | 0.00517 µM [rising, full curve, poor fit] |
| COc1ccccc1C(=O)NCC(C)(C)CN=C1NS(=O)(=O)c2ccccc21 | 7.92% | 8.2 µM [falling, single point] | – |
| COc1ccc(NC(=O)CCCN2C(=O)C(c3ccccc3)Oc3cccnc32)cc1 (stereo not drawn) | -14.3% | 6.51 µM [rising, single point] | – |
| Cc1ccc(NC(=O)CSc2n[nH]c(-c3ccncc3)n2)cc1C | 161% | 2.91 µM [rising, partial curve] | 13 µM [rising, partial curve] |

2 of the compounds above, field by field:
OC1(CNCc2cn[nH]c2-c2cc3ccccc3o2)CCCCC1
  AC50 [1]: 3.66 µM [rising, full curve]
CCc1ccc(OCC2c3cc(OC)c(OC)cc3CCN2C(=S)NCCOC)cc1 (stereo not drawn)
  cell number change: 21.8%
